In patent publication US4701205A, “Chemical tobacco sucker control” (Chevron Research Company, priority 1986, dated 1987):
Read-outs that look alike come from different tables or passages of the source.

Assays:
[1] = tested on: tobacco suckers (axillary buds), Var. Glurk; assay: Tobacco sucker control, spray to run-off on topped plants, Var. Glurk; format: in vivo, Nicotiana tabacum; conditions: Table 4, Three After Treatment, 4 pots
Method: In this example, the title compound of Example 1 (i.e., 2-[1-(3-trans-chloroallyloxyamino)ethylidene]-5-(2-ethylthiopropyl)cyclohexane-1,3-dione was tested side-by-side with 2-[1-(3-trans-chloroallyloxyamino)butylidene]-5-(2-ethylthio-propyl)-cyclohexane-1,3-dione for their ability to control (retard or prevent) lateral axillary buds in tobacco plants.
(§1) Twenty-four hours before treatment, the tobacco plants are "topped", removing the top 15 cm of the plant. Any plants which are tending to lean or bend in the pot were staked, and all pots labeled. Three to five replicates were used per treatment. A 5% wt. stock solution of each test compound dissolved in acetone containing a small amount of non-ionic emulsifier was prepared. The stock solution was appropriately diluted with deionized water containing 0.625 g of emulsifier per liter of water, to the desired spray solution concentration.
(§2) Plants were sprayed to point of run-off with a pressure atomizer, making sure that the stem, leaf axils, and leaves were all wet thoroughly with the solution. 30 to 35 ml of solution were used per plant. This was checked by recording volume of solution in sprayer reservoir before and after treatment. After spraying, the plants were incubated for 18 to 23 days in a greenhouse maintained at 70°-80° F. using standing water capilliary irrigation. The plants were uniformly fertilized once per week with a standard house plant fertilizer. After the incubation period, the plants were evaluated at various times for sucker control. […] The growth of secondary suckers (buds at lower nodes) when present, were also measured.
(§3) In some instances, comparisons were also made on the basis of sucker length.
(§4) The results are reported as an average of the replicates used in each test.
(§5) In this example, the title compound of Example 1 was tested side-by-side with maleic hydrazide ("C-2") with respect to axillary bud control in two varities of tobacco plants. These tests were conducted following the same general procedure as described in Example 3 hereinabove using the dosage concentrations given in the tables hereinbelow. […]

[2] = tested on: tobacco suckers (axillary buds), Var. 12 × L8; format: in vivo, Nicotiana tabacum; conditions: Table 4, Three After Treatment, 4 pots
Method: as §1, §2, §3, §4, §5

CCSC(C)CC1CC(=O)C(=C(C)NOC/C=C/Cl)C(=O)C1 (stereo not drawn) [Compound 1, Trans-2-[1-(3-chloroallyloxyamino)-ethylidene]-5-(2-ethylthiopropyl)-cyclohexane-1,3-dione]
Comparative Leaf Area (cm^2) ([1]; 100 mg/l): 155.48 cm^2 | Comparative Leaf Area (cm^2) ([1]; 200 mg/l): 155.03 cm^2 | Comparative Leaf Area (cm^2) ([1]; 400 mg/l): 130.15 cm^2 | Comparative Leaf Area (cm^2) ([1]; 800 mg/l): 141.00 cm^2 | Comparative Leaf Area (cm^2) ([2]; 100 mg/l): 244.40 cm^2 | Comparative Leaf Area (cm^2) ([2]; 200 mg/l): 240.53 cm^2 | Comparative Leaf Area (cm^2) ([2]; 400 mg/l): 334.13 cm^2 | Comparative Leaf Area (cm^2) ([2]; 800 mg/l): 284.50 cm^2
